Patent US20190100602A1
These are yes or no findings as the source states them, for the method shown. Binding can be weak; no strength is given.

Key:
Assay in all cases: description, summary of cross-reaction; assay not named
[1] = target: simian antithrombin (simian)
[2] = target: rabbit antithrombin (rabbit)
[3] = target: rat antithrombin (rat)
[4] = target: canine antithrombin (canine)
[5] = target: porcine antithrombin (porcine)

binding [1]	binding [2]	binding [3]	binding [4]	binding [5]	Binder
binds					KB-AT-005 (VHH) VHH: EVQLVESGGGLVQPGGSLRLSCEASGRDFNDAALGWSRQVPGKARETVAMITSGGVRNYAETVKDRFTISRDNAKNTVYLDMNNLQPDDTGVYYCKADSFKGDYDTSWYLYWGQGTQVTVSS
binds					KB-AT-007 (VHH) VHH: QVQLQQSGGGLVQAGGSLRLSCAASGRTFRNYVMGWFRQAPGKDPEFIAGINRSGAITYYGDSVKGRFTISRDNAKNTVSLQMNSLEPEDTAVYYCAAGETTWSIRRDDYDYWGQGTQVTVSS
binds	binds	binds			KB-AT-001 (VHH) VHH: QVQLQQSGGDLAQRGGSLRLSCAASGRTFRNYVMGWFRQAPGKDPEFIAGINRSGAITYYGDSVKGRFTISRDNAKNTVSLQMNSLEPEDTAVYYCAAGETTWSIRRDDYDYWGQGTQVTVSS
binds		binds	binds		KB-AT-003 (VHH) VHH: QVQLVQSGGGLVQPGGSLRLSCAASALTFSSRAWAWYRQAPGKQRELVASITGGGTTNYADSVKGRFTISRDNAKNTVYLQMNSLKPEDTAVHYCNGYRYTYAWGQGTQVTVSS
binds	binds	binds	binds	binds	KB-AT-002 (VHH) VHH: QVQLVQSGGGLVQAGGSLRLSCAASGRTFNNNGMGWFRQAPGKEREFVAAISWSGGSTYYADSVKGRYIMSRDNAKNTVYLQMNSLKPEDTAVYYCAARTRYNSGLFSRNYDYWGQGTQVTVSS
binds	binds	binds	binds	binds	KB-AT-006 (VHH) VHH: QVQLQQSGGGLVQAGGSLRLSCAASGRTFSNNGMGWFRQAPGKEREFVAAISWSSGSTYYADSVKGRYTISRDNAKNTVYLQMNSLKPEDTAVYYCAARTRYNSGYFTRNYDYWGQGTQVTVSS
binds		binds	binds	binds	KB-AT-004 (VHH) VHH: VQLQQSGGGLVQPGGSLRLSCAASAMTFSIRAWAWYRQAPGKQRELVASIGTGDITNYADSVKGRFTISRDNAKNTFYLQMNSLKPEDTAVYYCNGYRSTYAWGQGTQVTVSS
